Data as given in PubChem BioAssay AID504791 (Drosophila RNAi Screening Center, 2011)
The screen tested about 23,000 reagents; shown is an unselected part of those that have a named target and a result. Over the whole deposit, 199 (0.86%) got an active call. 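Plate-scaled ratios behind the calls are not deposited; printed light signals are raw; many rows marked increased or decreased are still called inactive.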 The numbers tell different reagents against one gene apart. The record does not give: the direction of the score.

Screen: 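Genes of the fly required for silencing by miRNA, siRNA or endo-siRNA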 (primary screen)
System: Drosophila S2-derived reporter cells
Reagents: long dsRNA against Drosophila genes, about 150-250 ng dsRNA per well (siRNA assay); about 80-120 ng (miRNA assay)
Duration: about 5 days (siRNA assay); about 4 days (miRNA assay)
Challenge: copper sulfate induction of reporters: 25 µM (siRNA assay); 200 mM stated (miRNA assay), 1-2 days before reading
Measured: 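Dual luciferase assay: Renilla to firefly signal ratio in each well, scaled to the mean ratio of its plate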
Hit rule: 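a well was a first-pass pick when its plate-scaled ratio rose above 1.5 (siRNA assay) or 1.6 (miRNA assay), or dropped below 0.6; a gene counted only if two separate dsRNAs agreed on retest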

CG15705 showed stable assay Renilla, run 1 (luminescence) = 7696; stable assay firefly, run 1 (luminescence) = 4.49e5; inactive.
For CG13334, the entry reads stable assay Renilla, run 1 (luminescence) = 5595; stable assay firefly, run 1 (luminescence) = 3.07e5; inactive.
Silencing of CG7567 gave: stable assay Renilla, run 1 (luminescence) = 5875; stable assay firefly, run 1 (luminescence) = 3.70e5; inactive.
Against CG30158 #1, the entry reads stable assay Renilla, run 1 (luminescence) = 4387; stable assay firefly, run 1 (luminescence) = 5.42e5; inactive.
CG30158 #2 showed stable assay Renilla, run 1 (luminescence) = 6860; stable assay firefly, run 1 (luminescence) = 4.24e5; inactive.
Against CG30158 #3, the entry reads stable assay Renilla, run 1 (luminescence) = 5650; stable assay firefly, run 1 (luminescence) = 3.66e5; inactive.
After knock-down of CG30158 #4, the record shows stable assay Renilla, run 1 (luminescence) = 6203; stable assay firefly, run 1 (luminescence) = 3.64e5; inactive.
Idgf3 scored stable assay Renilla, run 1 (luminescence) = 74744; stable assay firefly, run 1 (luminescence) = 1.33e6; inactive.
Knock-down of CG13653 resulted in: stable assay Renilla, run 1 (luminescence) = 7038; stable assay firefly, run 1 (luminescence) = 3.34e5; inactive.
Knock-down of CG9254 resulted in: stable assay Renilla, run 1 (luminescence) = 8286; stable assay firefly, run 1 (luminescence) = 4.35e5; inactive.
nes showed stable assay Renilla, run 1 (luminescence) = 8132; stable assay firefly, run 1 (luminescence) = 4.59e5; inactive.
With knock-down of CG15725 the results were stable assay Renilla, run 1 (luminescence) = 6127; stable assay firefly, run 1 (luminescence) = 5.13e5; inactive.
For FIG4 the deposit lists stable assay Renilla, run 1 (luminescence) = 12278; stable assay firefly, run 1 (luminescence) = 7.31e5; inactive.
CG31245 showed stable assay Renilla, run 1 (luminescence) = 6707; stable assay firefly, run 1 (luminescence) = 2.50e5; inactive.
Silencing of CG4133 #1 gave: stable assay Renilla, run 1 (luminescence) = 5786; stable assay firefly, run 1 (luminescence) = 2.36e5; inactive.
Silencing of CG4133 #2 gave: stable assay Renilla, run 1 (luminescence) = 5683; stable assay firefly, run 1 (luminescence) = 3.80e5; inactive.
For GC, the values are stable assay Renilla, run 1 (luminescence) = 8210; stable assay firefly, run 1 (luminescence) = 3.58e5; inactive.
dy showed stable assay Renilla, run 1 (luminescence) = 5503; stable assay firefly, run 1 (luminescence) = 5.19e5; inactive.
After knock-down of yellow-d2 the results were stable assay Renilla, run 1 (luminescence) = 7691; stable assay firefly, run 1 (luminescence) = 4.70e5; inactive.
sowah #1 gave stable assay Renilla, run 1 (luminescence) = 5123; stable assay firefly, run 1 (luminescence) = 4.48e5; inactive.
Silencing of sowah #2 came out at: stable assay Renilla, run 1 (luminescence) = 8089; stable assay firefly, run 1 (luminescence) = 4.03e5; inactive.
With knock-down of ApepP, the record shows stable assay Renilla, run 1 (luminescence) = 8400; stable assay firefly, run 1 (luminescence) = 2.22e6; inactive.
Knock-down of eIF4E7 #1 gave: stable assay Renilla, run 1 (luminescence) = 6095; stable assay firefly, run 1 (luminescence) = 3.79e5; inactive.
With knock-down of eIF4E7 #2, the record shows stable assay Renilla, run 1 (luminescence) = 6386; stable assay firefly, run 1 (luminescence) = 3.55e5; inactive.
Against CG5282, the entry reads stable assay Renilla, run 1 (luminescence) = 7754; stable assay firefly, run 1 (luminescence) = 2.97e5; inactive.
Against ATPsyngamma, the values are stable assay Renilla, run 1 (luminescence) = 5096; stable assay firefly, run 1 (luminescence) = 3.21e5; inactive.
After knock-down of CG17760, the record shows stable assay Renilla, run 1 (luminescence) = 7279; stable assay firefly, run 1 (luminescence) = 5.22e5; inactive.
With knock-down of jagn, the screen gave stable assay Renilla, run 1 (luminescence) = 7264; stable assay firefly, run 1 (luminescence) = 5.20e5; inactive.

3 neighbouring entries already listed, for reference:
eIF4E7 #2: stable assay Renilla, run 1 (luminescence) = 6386; stable assay firefly, run 1 (luminescence) = 3.55e5; Outcome = inactive
CG5282: stable assay Renilla, run 1 (luminescence) = 7754; stable assay firefly, run 1 (luminescence) = 2.97e5; Outcome = inactive
ATPsyngamma: stable assay Renilla, run 1 (luminescence) = 5096; stable assay firefly, run 1 (luminescence) = 3.21e5; Outcome = inactive
